Reference: patent US20260232750A1, “COMPOSITION AND METHOD FOR INHIBITING ADVANCED GLYCATION END PRODUCTS” (ACCESS BUSINESS GROUP INTERNATIONAL LLC, priority 2022, published 2026)
Some results were stated once for a whole list of compounds, not compound by compound.

Columns and labels:
DPPH· scavenging assay = type: biochemical
[1] = FRAP total antioxidant capacity assay; type: biochemical
Procedure: Fast colourimetric methods were slightly modified for the in vitro assessment of DPPH· scavenging, ABTS·+ decolourisation capacity, and total antioxidant capacity of FRAP. The stock solutions of derivatisation reagents were diluted as follows before measurement: DPPH was diluted with absolute ethanol until the absorbance was 0.8±0.05 at λ=517 nm. ABTS working solution was prepared with phosphate buffer (0.2 M, pH 7.4) to display absorbance of 0.8±0.05 at λ=729 nm, based on a previous study. The FRAP solution was prepared according to the instructions of the FRAP kit. Absorbances were measured using an automatic microplate reader (Molecular Group Ltd., USA), and all analyses were performed using 96-well plates. All measurements were performed in triplicate, and Trolox was used as a positive control.
FeSO4 solutions (0.15, 0.3, 0.6, 0.9, 1.2, and 1.5 mM) were used for the calibration curve. The FRAP value represents the corresponding concentration of FeSO4 solutions (mM FeSO4). The regression equation from the standard curve was used to calculate the equivalent concentration 1 (EC1) of each sample. EC1 is defined as the concentration of the test sample with an absorbance equivalent to that of 1.0 mmol/L of FeSO4 solution, determined by its calibration curve.

Row | Compound | IC50 (DPPH· scavenging assay) | EC1 of FRAP [1]
1 | O=c1cc(-c2ccc(O)cc2)oc2c([C@@H]3O[C@H](CO)[C@@H](O)[C@H](O)[C@H]3O)c(O)c([C@@H]3O[C@H](CO)[C@@H](O)[C@H](O)[C@H]3O)c(O)c12 [Compound 10, Vicenin-2] | > 5 mM | higher than 5,000 μM
2 | O=c1cc(-c2ccc(O)cc2)oc2c([C@@H]3O[C@H](CO)[C@@H](O)[C@H](O)[C@H]3O)c(O)c([C@@H]3OC[C@@H](O)[C@H](O)[C@H]3O)c(O)c12 [Compound 14, Vicenin-1] | > 5 mM | higher than 5,000 μM
3 | O=c1cc(-c2ccc(O)cc2)oc2c([C@@H]3OC[C@H](O)[C@H](O)[C@H]3O)c(O)c([C@@H]3O[C@H](CO)[C@@H](O)[C@H](O)[C@H]3O)c(O)c12 [Compound 17, Schaftoside] | > 5 mM | higher than 5,000 μM
4 | O=c1cc(-c2ccc(O)cc2)oc2c([C@@H]3OC[C@@H](O)[C@H](O)[C@H]3O)c(O)c([C@@H]3O[C@H](CO)[C@@H](O)[C@H](O)[C@H]3O)c(O)c12 [Compound 19, Vicenin-3] | > 5 mM | higher than 5,000 μM
5 | CC1OC(OCC2OC(Oc3c(-c4ccc(O)cc4)oc4cc(O)cc(O)c4c3=O)C(O)C(O)C2O)C(O)C(O)C1O (stereo not drawn) [Compound 28, Kaempferol-3-O-rutinoside] | – | higher than 5,000 μM
